According to publication doi:10.1101/2021.02.02.429361 (bioRxiv, 2021):
Results are given in words; binding and its absence hold for the method and conditions named. Binding calls can cover weak binding; strength is not graded here. Sequences can lack the tags named with a protein.

Molecular target: T1, AtMPK3 (mitogen activated protein kinase-3), full length, yeast two-hybrid fusion (Arabidopsis thaliana) (UniProt Q39023)
T1 sequence: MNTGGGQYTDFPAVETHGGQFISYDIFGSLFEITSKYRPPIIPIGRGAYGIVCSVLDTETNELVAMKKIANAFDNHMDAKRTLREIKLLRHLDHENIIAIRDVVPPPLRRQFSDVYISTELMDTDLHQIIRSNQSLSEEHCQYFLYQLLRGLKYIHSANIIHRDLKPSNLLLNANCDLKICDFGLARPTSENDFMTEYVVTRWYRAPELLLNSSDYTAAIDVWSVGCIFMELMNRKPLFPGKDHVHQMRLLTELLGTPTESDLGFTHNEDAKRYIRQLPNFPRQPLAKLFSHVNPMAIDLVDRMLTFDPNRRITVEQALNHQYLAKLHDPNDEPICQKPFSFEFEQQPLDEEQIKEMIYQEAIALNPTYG
Experiment: two-hybrid

Substance	binding
AtABI5 N-terminal variant (ABI5N), yeast two-hybrid fusion (Arabidopsis thaliana) (domain or fragment)	binds
AtABI5 C-terminal variant (ABI5C), yeast two-hybrid fusion (Arabidopsis thaliana) (domain or fragment)	no binding
